Values of other authors as cited in patent US10428093B2, “Lipid co-factor essential for cell density signaling” (priority 2013, dated 2019).
At least one structure is not confirmed: it was looked up by name or label, or the drawing left a doubt.

Test system: PAT cells
Details: addition of ascorbate, rapidly (<30 min); cited from earlier work

For O=C1O[C@H]([C@@H](O)CO)C(O)=C1O [ascorbate], the “Increase in procollagen secretion” value is given as 6 fold and the “Increase in procollagen translation” value is given as 2 fold.
